PubChem BioAssay AID1259254, NCATS – 2017

- Test: 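Finding genes that stop cells copying their DNA twice in one cycle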 (primary screen)
- Cell system: human HCT116 colorectal cancer cells
- Reagent: single siRNA against human genes
- Timing: 3 days
- Measurement: 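Nuclei stained with Hoechst and imaged; cell-cycle phase assigned by DNA content; G2 share scaled per plate, non-targeting siRNA 0%, GMNN siRNA 100%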
- Reading the numbers: G2 robust z-score and G2 cells, % of GMNN control: higher = more G2 cells, more excess DNA replication
- Hit rule: 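An siRNA counts as active if its G2 robust z-score lies at least 5 MADs above the screen median; here such calls match roughly 38% of GMNN control or more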
The deposit covers about 59,000 reagents; below is a part drawn at random. Over the whole deposit, about 1,550 (2.6%) were called active. 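G2 share is only a proxy for re-replication; each gene was hit by three separate siRNAs, and active genes were retested.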 A number with no mark means an inactive call. The numbers tell different reagents against one gene apart. Further read-outs or replicates are left out here. No sequences are given here. Not given: the amount of reagent.

gene knocked down | reagent | G2 robust z-score | G2 cells, % of GMNN control
ASPNAT | 1 | 6.25 (active) | 47
ASPNAT | 2 | -0.408 | 0.0969
ASPNAT | 3 | -0.505 | -0.582
SLC26A5 | 1 | -0.307 | 0.807
SLC26A5 | 2 | 2.44 | 20.1
SLC26A5 | 3 | 3.2 | 25.5
KCTD3 | 1 | 0.337 | 5.34
KCTD3 | 2 | 3.68 | 28.8
KCTD3 | 3 | -0.0715 | 2.46
PRSS27 | 1 | -1.12 | -4.88
PRSS27 | 2 | -0.388 | 0.241
PRSS27 | 3 | -1.2 | -5.51
WFDC13 | 1 | -0.55 | -0.899
WFDC13 | 2 | 0.612 | 7.27
WFDC13 | 3 | 0.0761 | 3.5
TTC4 | 1 | 2.05 | 17.4
TTC4 | 2 | -0.442 | -0.144
TTC4 | 3 | 1.93 | 16.5
CHRNA7 | 1 | 5.42 (active) | 41.1
CHRNA7 | 2 | 2.07 | 17.6
CHRNA7 | 3 | -0.989 | -3.99
EYA1 | 1 | 6.36 (active) | 47.7
EYA1 | 2 | 3.34 | 26.4
EYA1 | 3 | 3.31 | 26.2
GABRG2 | 1 | 1.66 | 14.6
GABRG2 | 2 | -0.223 | 1.4
GABRG2 | 3 | -0.435 | -0.0917
C19orf18 | 1 | -0.45 | -0.199
C19orf18 | 2 | -0.236 | 1.3
C19orf18 | 3 | -0.838 | -2.93
JKAMP | 1 | -0.86 | -3.08
JKAMP | 2 | 0.685 | 7.79
JKAMP | 3 | 1.66 | 14.6
PPFIBP2 | 1 | 1.09 | 10.6
PPFIBP2 | 2 | 0.498 | 6.47
PPFIBP2 | 3 | -0.535 | -0.797
HEATR9 | 1 | 1.6 | 14.2
HEATR9 | 2 | -0.686 | -1.86
HEATR9 | 3 | -0.644 | -1.56
MGMT | 1 | -1.2 | -5.45
MGMT | 2 | -0.725 | -2.13
MGMT | 3 | -0.283 | 0.977
ZNF652 | 1 | -0.409 | 0.0864
ZNF652 | 2 | -0.797 | -2.64
ZNF652 | 3 | 2.82 | 22.8
COL16A1 | 1 | -0.756 | -2.35
COL16A1 | 2 | 4.43 | 34.2
COL16A1 | 3 | -0.793 | -2.61
MTIF3 | 1 | -0.386 | 0.251
MTIF3 | 2 | -0.391 | 0.216
MTIF3 | 3 | 1.81 | 15.7
KRTAP13-4 | 1 | -0.235 | 1.32
KRTAP13-4 | 2 | 0.934 | 9.54
KRTAP13-4 | 3 | 0.147 | 4
URI1 | 1 | -1.34 | -6.48
URI1 | 2 | -0.378 | 0.311
URI1 | 3 | -0.22 | 1.42
LOC732226 (retired record) | 1 | -1.42 | -7.04
LOC732226 (retired record) | 2 | 0.702 | 7.91
LOC732226 (retired record) | 3 | -0.63 | -1.46
NICN1 | 1 | -1.1 | -4.78
NICN1 | 2 | 5.95 (active) | 44.8
NICN1 | 3 | -0.401 | 0.147
DDIAS | 1 | -0.366 | 0.392
DDIAS | 2 | -1.01 | -4.11
DDIAS | 3 | -0.725 | -2.13
CERCAM | 1 | 0.0837 | 3.56
CERCAM | 2 | 4.27 | 33
CERCAM | 3 | -0.708 | -2.02

9 consecutive entries already listed:
gene knocked down | reagent | G2 robust z-score | G2 cells, % of GMNN control
PPFIBP2 | 1 | 1.09 | 10.6
PPFIBP2 | 2 | 0.498 | 6.47
PPFIBP2 | 3 | -0.535 | -0.797
HEATR9 | 1 | 1.6 | 14.2
HEATR9 | 2 | -0.686 | -1.86
HEATR9 | 3 | -0.644 | -1.56
MGMT | 1 | -1.2 | -5.45
MGMT | 2 | -0.725 | -2.13
MGMT | 3 | -0.283 | 0.977
